According to patent publication US5578573A (priority 1995, dated 1996):
No end group written: not given here.

Experiment: general procedure: Boc solid-phase peptide synthesis; MBHA; dicyclohexylcarbodiimide
Conditions: whole synthesis, 215 nm

With HCKFWW-NH2 the “final HPLC purity” value was “greater than 90% pure”.
